Binding data for 1 molecule are collected here from patent publication US20130096282A1.

Results are given in words; binding and its absence hold for the method and conditions named. Some entries that bind do so weakly or less than the wild type. Sequences can lack the tags named with a protein.

The experiment addresses T1, recombinantly-expressed P. aeruginosa flagellin type B (Pseudomonas aeruginosa) (UniProt P72151).
T1 sequence: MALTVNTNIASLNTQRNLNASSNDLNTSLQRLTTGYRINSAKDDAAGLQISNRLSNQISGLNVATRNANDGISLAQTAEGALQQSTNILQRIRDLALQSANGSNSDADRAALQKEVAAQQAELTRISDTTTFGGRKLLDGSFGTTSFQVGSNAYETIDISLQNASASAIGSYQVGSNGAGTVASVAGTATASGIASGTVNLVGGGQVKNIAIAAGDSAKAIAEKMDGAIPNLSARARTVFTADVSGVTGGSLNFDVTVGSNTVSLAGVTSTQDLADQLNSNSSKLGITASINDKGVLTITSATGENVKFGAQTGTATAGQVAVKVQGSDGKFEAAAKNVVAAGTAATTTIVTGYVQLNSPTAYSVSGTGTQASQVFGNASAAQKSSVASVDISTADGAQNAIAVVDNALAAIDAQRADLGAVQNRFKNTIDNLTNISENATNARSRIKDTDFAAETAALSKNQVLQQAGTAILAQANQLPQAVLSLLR
The experiment in a line: ELISA on plates coated with recombinant flagellin type B. In general terms: In an ELISA, binding on a coated surface is turned into a signal by an enzyme label.

B1: fully human recombinant mAb LST-008 (antibody, V domains shown)
VH: QVRLVQSGTEVKKPGASVRVSCKASGYTFSNYYMYWVRQAPGQGLEWMAMINPSGGSTRYAQKFQGRVTMTRDTSTSTVYMELSSLRSEDTAVYYCARADSGSYFGYWGQGTLVTVSS
VL: DIQLTQSPSFLSASVGDRVPITCRASQGISTHLAWYQQKPGKAPKLLIYAASTLQSGVPSRFSGSGSGTEFTLTISSLQPEDSATYYCQQLKSYPLTFGGGTKVEIKR
With B1, the binding result was “binds”.
